Reference: doi:10.1101/2022.09.10.507413
These are yes or no findings as the source states them, for the method shown. Binding seen in cells or lysates may run through a third protein. A yes stands for co-enrichment or nearness to the bait. Other partners may have been found. Sequences can lack the tags named with a protein.

By UniProt entry, the sequences of proteins in these tests, tags left out. Residues count along the entry.
UniProt P11276, residues 33-2477: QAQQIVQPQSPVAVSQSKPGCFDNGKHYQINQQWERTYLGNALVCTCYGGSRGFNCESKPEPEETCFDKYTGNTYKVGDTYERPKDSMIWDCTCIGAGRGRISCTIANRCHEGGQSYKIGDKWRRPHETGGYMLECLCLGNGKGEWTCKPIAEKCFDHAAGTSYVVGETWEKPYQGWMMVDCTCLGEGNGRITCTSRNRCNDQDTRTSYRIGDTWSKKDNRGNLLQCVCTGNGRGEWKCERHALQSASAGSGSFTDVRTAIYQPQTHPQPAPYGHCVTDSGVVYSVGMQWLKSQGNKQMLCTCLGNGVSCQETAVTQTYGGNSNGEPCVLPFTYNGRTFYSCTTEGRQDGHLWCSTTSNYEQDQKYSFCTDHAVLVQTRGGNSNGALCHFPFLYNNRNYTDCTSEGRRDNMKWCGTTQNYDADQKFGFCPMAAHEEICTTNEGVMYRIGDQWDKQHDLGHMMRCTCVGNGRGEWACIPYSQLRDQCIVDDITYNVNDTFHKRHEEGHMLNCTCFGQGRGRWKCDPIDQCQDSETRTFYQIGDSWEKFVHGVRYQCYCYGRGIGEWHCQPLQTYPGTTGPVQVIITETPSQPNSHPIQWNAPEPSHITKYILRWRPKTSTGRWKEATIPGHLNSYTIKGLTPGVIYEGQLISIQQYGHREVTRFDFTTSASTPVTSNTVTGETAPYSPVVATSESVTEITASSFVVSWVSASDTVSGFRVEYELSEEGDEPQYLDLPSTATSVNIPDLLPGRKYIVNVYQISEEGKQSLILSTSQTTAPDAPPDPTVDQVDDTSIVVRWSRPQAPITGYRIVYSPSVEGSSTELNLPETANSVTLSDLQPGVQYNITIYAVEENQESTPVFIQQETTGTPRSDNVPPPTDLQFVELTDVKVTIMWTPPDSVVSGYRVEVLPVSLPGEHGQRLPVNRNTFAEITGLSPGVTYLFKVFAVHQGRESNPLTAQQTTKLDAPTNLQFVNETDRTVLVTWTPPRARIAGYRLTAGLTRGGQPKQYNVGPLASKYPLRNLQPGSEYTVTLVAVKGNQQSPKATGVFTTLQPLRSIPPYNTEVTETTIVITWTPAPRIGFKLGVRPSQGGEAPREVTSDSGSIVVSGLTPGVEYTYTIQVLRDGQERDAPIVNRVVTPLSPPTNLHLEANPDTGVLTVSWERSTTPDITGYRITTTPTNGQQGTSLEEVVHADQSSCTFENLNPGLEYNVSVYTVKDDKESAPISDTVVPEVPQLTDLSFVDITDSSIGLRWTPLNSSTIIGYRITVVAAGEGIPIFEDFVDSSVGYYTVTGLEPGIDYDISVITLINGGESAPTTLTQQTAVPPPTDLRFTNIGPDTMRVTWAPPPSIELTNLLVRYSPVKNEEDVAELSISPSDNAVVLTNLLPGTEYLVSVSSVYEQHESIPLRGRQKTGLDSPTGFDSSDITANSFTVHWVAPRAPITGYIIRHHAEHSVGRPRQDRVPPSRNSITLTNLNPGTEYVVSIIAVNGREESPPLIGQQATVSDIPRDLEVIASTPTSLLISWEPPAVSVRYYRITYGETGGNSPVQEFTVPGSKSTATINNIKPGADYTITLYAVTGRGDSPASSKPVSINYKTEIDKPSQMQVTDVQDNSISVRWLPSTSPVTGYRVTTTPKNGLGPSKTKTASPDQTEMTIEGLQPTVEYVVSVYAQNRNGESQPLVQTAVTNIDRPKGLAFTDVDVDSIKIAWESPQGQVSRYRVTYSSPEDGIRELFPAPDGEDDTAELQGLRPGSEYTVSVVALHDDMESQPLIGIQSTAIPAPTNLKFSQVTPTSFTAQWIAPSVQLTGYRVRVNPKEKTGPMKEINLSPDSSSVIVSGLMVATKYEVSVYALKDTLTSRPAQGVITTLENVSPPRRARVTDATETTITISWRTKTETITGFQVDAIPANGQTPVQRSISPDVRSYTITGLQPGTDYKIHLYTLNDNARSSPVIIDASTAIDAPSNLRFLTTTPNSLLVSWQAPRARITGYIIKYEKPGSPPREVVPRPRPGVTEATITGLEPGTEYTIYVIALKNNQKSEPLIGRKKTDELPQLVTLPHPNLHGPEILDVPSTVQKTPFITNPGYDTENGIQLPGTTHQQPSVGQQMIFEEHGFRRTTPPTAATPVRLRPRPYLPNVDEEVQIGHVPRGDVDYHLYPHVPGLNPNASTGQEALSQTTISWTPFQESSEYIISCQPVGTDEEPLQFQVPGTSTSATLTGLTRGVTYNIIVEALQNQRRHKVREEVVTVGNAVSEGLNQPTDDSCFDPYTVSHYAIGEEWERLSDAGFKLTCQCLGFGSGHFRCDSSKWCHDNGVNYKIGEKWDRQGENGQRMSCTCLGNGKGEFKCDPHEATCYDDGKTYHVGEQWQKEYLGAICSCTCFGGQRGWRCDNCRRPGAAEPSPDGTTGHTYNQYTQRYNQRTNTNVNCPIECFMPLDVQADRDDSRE
UniProt Q80X90: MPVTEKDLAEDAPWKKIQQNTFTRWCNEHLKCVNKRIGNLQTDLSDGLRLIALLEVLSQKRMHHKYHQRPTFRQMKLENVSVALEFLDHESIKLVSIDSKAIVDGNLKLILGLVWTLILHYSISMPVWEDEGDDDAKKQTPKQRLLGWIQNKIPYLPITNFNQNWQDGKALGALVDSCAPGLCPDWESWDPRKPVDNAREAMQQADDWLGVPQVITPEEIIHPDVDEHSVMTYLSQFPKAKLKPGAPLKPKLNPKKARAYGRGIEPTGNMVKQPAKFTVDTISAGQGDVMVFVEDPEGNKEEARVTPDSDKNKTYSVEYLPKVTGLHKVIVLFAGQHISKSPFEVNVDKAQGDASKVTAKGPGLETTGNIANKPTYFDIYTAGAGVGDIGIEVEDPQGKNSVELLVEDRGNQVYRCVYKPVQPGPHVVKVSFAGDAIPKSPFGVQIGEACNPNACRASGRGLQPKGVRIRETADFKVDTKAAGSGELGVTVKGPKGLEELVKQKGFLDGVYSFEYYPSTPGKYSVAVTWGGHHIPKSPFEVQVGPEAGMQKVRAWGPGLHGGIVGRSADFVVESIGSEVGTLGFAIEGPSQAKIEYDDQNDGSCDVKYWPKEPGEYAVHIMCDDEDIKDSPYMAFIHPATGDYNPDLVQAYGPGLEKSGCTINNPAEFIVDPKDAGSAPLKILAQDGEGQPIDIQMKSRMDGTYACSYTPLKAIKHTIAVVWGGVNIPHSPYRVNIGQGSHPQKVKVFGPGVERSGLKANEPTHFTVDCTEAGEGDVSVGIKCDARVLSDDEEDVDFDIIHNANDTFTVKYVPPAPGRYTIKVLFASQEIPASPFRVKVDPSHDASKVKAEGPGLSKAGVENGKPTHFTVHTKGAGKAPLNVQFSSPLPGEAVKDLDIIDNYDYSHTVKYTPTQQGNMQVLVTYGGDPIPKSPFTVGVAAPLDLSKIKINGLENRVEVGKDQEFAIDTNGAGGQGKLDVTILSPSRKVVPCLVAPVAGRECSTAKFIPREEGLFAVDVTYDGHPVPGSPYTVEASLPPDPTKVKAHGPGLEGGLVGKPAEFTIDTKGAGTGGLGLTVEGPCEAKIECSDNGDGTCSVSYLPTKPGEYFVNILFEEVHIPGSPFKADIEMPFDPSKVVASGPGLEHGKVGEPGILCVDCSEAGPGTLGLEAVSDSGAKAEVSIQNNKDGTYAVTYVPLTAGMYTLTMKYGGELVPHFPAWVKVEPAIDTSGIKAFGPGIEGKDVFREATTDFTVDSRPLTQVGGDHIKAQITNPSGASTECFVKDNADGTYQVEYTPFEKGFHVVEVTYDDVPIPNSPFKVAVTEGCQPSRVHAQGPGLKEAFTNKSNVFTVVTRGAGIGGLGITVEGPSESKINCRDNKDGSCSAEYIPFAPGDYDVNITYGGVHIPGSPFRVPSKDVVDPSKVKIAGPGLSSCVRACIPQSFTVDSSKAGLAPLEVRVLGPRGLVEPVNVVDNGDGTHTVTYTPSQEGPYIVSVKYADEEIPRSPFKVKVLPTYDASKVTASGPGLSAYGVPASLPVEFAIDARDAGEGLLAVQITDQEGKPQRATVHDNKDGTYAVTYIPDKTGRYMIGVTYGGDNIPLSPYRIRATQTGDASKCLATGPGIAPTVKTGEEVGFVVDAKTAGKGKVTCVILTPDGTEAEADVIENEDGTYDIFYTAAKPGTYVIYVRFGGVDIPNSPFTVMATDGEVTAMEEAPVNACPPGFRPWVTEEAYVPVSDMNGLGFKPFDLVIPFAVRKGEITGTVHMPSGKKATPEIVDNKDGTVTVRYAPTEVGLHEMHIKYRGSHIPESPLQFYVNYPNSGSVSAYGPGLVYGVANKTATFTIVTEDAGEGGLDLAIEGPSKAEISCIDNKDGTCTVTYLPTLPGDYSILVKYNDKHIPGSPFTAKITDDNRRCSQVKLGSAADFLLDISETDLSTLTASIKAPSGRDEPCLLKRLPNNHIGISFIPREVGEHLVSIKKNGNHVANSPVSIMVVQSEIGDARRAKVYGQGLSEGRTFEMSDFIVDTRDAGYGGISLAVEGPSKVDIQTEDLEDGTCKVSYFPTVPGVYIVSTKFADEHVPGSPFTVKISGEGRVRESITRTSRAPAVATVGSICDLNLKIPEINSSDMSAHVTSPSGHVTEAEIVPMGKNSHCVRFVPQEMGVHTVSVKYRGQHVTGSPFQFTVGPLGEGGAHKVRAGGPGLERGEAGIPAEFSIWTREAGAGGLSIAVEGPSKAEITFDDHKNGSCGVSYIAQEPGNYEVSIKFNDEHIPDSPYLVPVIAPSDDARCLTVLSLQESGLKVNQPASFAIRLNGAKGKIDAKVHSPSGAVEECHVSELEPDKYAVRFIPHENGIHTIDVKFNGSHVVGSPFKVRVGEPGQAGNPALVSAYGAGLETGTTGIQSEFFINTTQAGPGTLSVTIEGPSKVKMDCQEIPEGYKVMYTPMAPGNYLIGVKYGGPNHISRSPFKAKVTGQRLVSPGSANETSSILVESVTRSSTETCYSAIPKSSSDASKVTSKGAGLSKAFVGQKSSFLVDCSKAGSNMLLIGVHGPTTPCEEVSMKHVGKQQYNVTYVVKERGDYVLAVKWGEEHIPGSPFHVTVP

Experiments:
[1] = target: T1, 3X FLAG tagged wild-type mouse Gstt1 (doxycycline-inducible overexpression) (mouse) (UniProt Q64471); experiment: affinity purification with mass spectrometry
T1 sequence: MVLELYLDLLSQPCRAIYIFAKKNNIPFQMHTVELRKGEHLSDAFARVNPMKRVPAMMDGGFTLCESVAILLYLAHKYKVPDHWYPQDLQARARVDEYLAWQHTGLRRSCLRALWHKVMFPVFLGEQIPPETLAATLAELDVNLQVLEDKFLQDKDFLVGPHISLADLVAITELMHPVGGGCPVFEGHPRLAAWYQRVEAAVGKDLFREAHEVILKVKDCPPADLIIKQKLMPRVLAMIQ

[2] = target: T2, Glutathione S-transferase theta 1 (Gstt1) (mouse (endogenous in PDAC-derived metastatic cell lines)) (UniProt Q64471); experiment: affinity purification with mass spectrometry
T2 sequence: T1 sequence

binding [1] | binding [2] | Substance
binds | binds | Fibronectin (from UniProt P11276 33-2477)
 | binds | Filamin B (from UniProt Q80X90 1-2602)
